# In the supplement of paper PMC9135407:
# Values joined by “and” are separate entries in the source; they are usually repeats but may differ in a detail not shown here. Equal entries are not always repeated. Structures can show the parent of a compound that is named as a salt. ± gives the standard deviation of the averaged measurements. Some of the results follow. Part of the spread comes from offsets between plates or batches.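 Assay uses culture-activated primary human stellate myofibroblasts; lipid droplet recovery indicates inactivation. Measured: proportion of Hoechst-counted cells over a plate-specific Bodipy cutoff, duplicate wells, DMSO and nortriptyline as per-plate negative and positive controls. A hit scores, control-normalized, above the plate's top-tenth-percentile nortriptyline wells or ranks among its three best wells. Final well concentrations not reported.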
# System: primary human hepatic stellate cells (donor 1)
# Experiment: percent Bodipy-positive cells; higher = more lipid droplet accumulation
# Settings: 48 h
# [1] = library stock concentration: 1 mM
# [2] = library stock concentration: 2 mM
# [3] = library stock concentration: 10 mM
# [4] = library stock concentration: 3.33 mM
# [5] = library stock concentration: 5.8 mM
# [6] = library stock concentration: 80 uM
# [7] = library stock concentration: 400 uM
compound,measurement,setting,value
CC(C)ON(CC(=O)NO)S(=O)(=O)c1ccc(-c2ccccc2)cc1,percent Bodipy-positive cells,[1],11.8 ± 2.1%
Cc1[nH]c(/C=C2/C(=O)Nc3ccc(S(=O)(=O)N(C)c4cccc(Cl)c4)cc32)c(C)c1C(=O)N1CCN(C)CC1,percent Bodipy-positive cells,[2],84.4 ± 1.4%
same,percent Bodipy-positive cells,[3],99.8 ± 0.28%
COc1cccc2c1[C@@H]1CN(CCCCn3c(=O)[nH]c4c(sc5ncc(-c6ccccc6)nc54)c3=O)C[C@@H]1CO2.Cl [Fiduxosin hydrochloride],percent Bodipy-positive cells,[3],90.3 ± 4.4%
CC(CNC1CCCCC1)OC(=O)c1ccccc1 (stereo not given) [Hexylcaine hydrochloride],percent Bodipy-positive cells,,11.1 ± 3.7%
O=C(O)c1cccc(-c2noc(-c3ccccc3F)n2)c1 [Ataluren (PTC124)],percent Bodipy-positive cells,[4],8.01 ± 1.9%
same,percent Bodipy-positive cells,[3],10.5 ± 1.9%
Nc1ccc(S(=O)(=O)Nc2nccs2)cc1 [Sulfathiazole],percent Bodipy-positive cells,,21.5 ± 8.8%
same,percent Bodipy-positive cells,[4],18.3 ± 5.9%
same,percent Bodipy-positive cells,library stock concentration: 7.8 mM,12.6 ± 4.9%
same,percent Bodipy-positive cells,[3],22.9% and 16.7%
CN[C@H]1CC[C@@H](c2ccc(Cl)c(Cl)c2)c2ccccc21 [Sertraline HCl],percent Bodipy-positive cells,[4],52.8 ± 17%
same,percent Bodipy-positive cells,[3],99.1 ± 1.3%
CN[C@H]1CC[C@@H](c2ccc(Cl)c(Cl)c2)c2ccccc21 [Sertraline],percent Bodipy-positive cells,[3],79.1% and 99.2%
CN[C@H]1CC[C@@H](c2ccc(Cl)c(Cl)c2)c2ccccc21 [Sertraline hydrochloride],percent Bodipy-positive cells,[5],85.5 ± 1.8%
CCOC(=O)C(Cc1ccc(O)cc1)NC(C)=O (stereo not given) [Acetyl tyrosine ethyl ester],percent Bodipy-positive cells,[3],32.1 ± 2.1%
COCCNC(=O)COc1ccc(OCCNC[C@H](O)COc2ccccc2)cc1 [ZD 7114 hydrochloride],percent Bodipy-positive cells,[3],19.3 ± 3.8%
CCN(CC)CCCCNc1ncc2cc(-c3cc(OC)cc(OC)c3)c(NC(=O)NC(C)(C)C)nc2n1,percent Bodipy-positive cells,[4],98.3 ± 1.7%
same,percent Bodipy-positive cells,[3],98.9 ± 1.5%
CCOC(=O)C1=C(C)NC(=S)NC1c1cccc(O)c1 (stereo not given) [Monastrol],percent Bodipy-positive cells,[3],7.21 ± 1.9%
same,percent Bodipy-positive cells,library stock concentration: 17.1 mM,24.23 ± 0.1%
CCn1c(N)c(C(=O)NC)c(=O)c2ccc(C#CC(C)(O)COC)nc21 (stereo not given),percent Bodipy-positive cells,[4],5.29 ± 0.95%
same,percent Bodipy-positive cells,[3],8.97 ± 1.6%
CC[C@H]1OC(=O)[C@H](C)[C@@H](O[C@H]2C[C@@](C)(OC)[C@@H](O)[C@H](C)O2)[C@H](C)[C@@H](O[C@@H]2O[C@H](C)C[C@H](N(C)C)[C@H]2O)[C@](C)(O)C[C@@H](C)CN(C)[C@H](C)[C@@H](O)[C@]1(C)O [Azithromycin dihydrate],percent Bodipy-positive cells,[3],94 ± 3.7%
CC[C@H]1OC(=O)[C@H](C)[C@@H](O[C@H]2C[C@@](C)(OC)[C@@H](O)[C@H](C)O2)[C@H](C)[C@@H](O[C@@H]2O[C@H](C)C[C@H](N(C)C)[C@H]2O)[C@](C)(O)C[C@@H](C)CN(C)[C@H](C)[C@@H](O)[C@]1(C)O [Azithromycin],percent Bodipy-positive cells,[4],41.9 ± 7.4%
same,percent Bodipy-positive cells,[3],68.5% and 70.1% and 90.6%
C[C@@H]1CCC[C@H](C)N1NC(=O)c1ccc(Cl)c(S(N)(=O)=O)c1 [Clopamide],percent Bodipy-positive cells,,23.3 ± 1.7%
same,percent Bodipy-positive cells,[5],8.88% and 10.4%
CN(C)C(=O)CCSC(SCCC(=O)O)c1cccc(/C=C/c2ccc3ccc(Cl)cc3n2)c1 (stereo not given) [MK 571 (sodium salt)],percent Bodipy-positive cells,[1],15.3 ± 7.8%
CN1CCc2nc(C(=O)N[C@@H]3C[C@@H](C(=O)N(C)C)CC[C@@H]3NC(=O)C(=O)Nc3ccc(Cl)cn3)sc2C1 [Edoxaban],percent Bodipy-positive cells,[4],27 ± 4.3%
same,percent Bodipy-positive cells,[3],32.8 ± 1.3%
OCCn1cc(-c2ccc3c(c2)CC/C3=N\O)c(-c2ccncc2)n1,percent Bodipy-positive cells,[6],23.4 ± 9.4%
same,percent Bodipy-positive cells,[7],24.7 ± 3.7%
same,percent Bodipy-positive cells,[2],25.6 ± 16%
same,percent Bodipy-positive cells,[4],5.97 ± 1.2%
same,percent Bodipy-positive cells,[3],12.8% and 12.4%
CCC(C)(C)N=C(NC#N)Nc1cccnc1,percent Bodipy-positive cells,library stock concentration: 9.9 mM,6.23 ± 0.32%
C1CCC(N=C(NC23CC4CC(CC(C4)C2)C3)N2CCOCC2)CC1,percent Bodipy-positive cells,[3],27.5 ± 7.7%
NC1CCN(O)C1=O (stereo not given),percent Bodipy-positive cells,[3],43.2 ± 6.8%
CCS(=O)(=O)c1cccc(-c2cc(C(=O)NC3CCN(C)CC3)c(C)c3[nH]c4ncc(C)cc4c23)c1,percent Bodipy-positive cells,[4],75 ± 0.81%
same,percent Bodipy-positive cells,[3],87.49 ± 0.55%
COC(=O)[C@H](Cc1ccccc1)NC(=O)[C@@H](N)CC(=O)O [Aspartame],percent Bodipy-positive cells,[4],8.74 ± 7%
same,percent Bodipy-positive cells,library stock concentration: 6.8 mM,12.3 ± 4.1%
same,percent Bodipy-positive cells,[3],7.85% and 31.9%
C=C1O[C@@](CO)(n2cnc3c(N)ncnc32)[C@H](O)[C@@H]1O [Decoyinine],percent Bodipy-positive cells,library stock concentration: 17.9 mM,18.9 ± 5.8%
O=C(/C=C/c1ccc(O)c(O)c1)O[C@H](Cc1ccc(O)c(O)c1)C(=O)O [Rosmarinic acid],percent Bodipy-positive cells,[3],30.3% and 5.35%
O=C(/C=C/c1ccc(O)c(O)c1)O[C@H](Cc1ccc(O)c(O)c1)C(=O)O [Rosmarinic Acid],percent Bodipy-positive cells,[1],11.1 ± 2.3%
NC(=O)C1CCCc2c1[nH]c1ccc(Cl)cc21 (stereo not given) [EX 527 (Selisistat)],percent Bodipy-positive cells,[4],5.96 ± 1.3%
same,percent Bodipy-positive cells,[3],6.1 ± 0.092%
NC(=O)C1CCCc2c1[nH]c1ccc(Cl)cc21 (stereo not given),percent Bodipy-positive cells,[6],31.3 ± 8.4%
same,percent Bodipy-positive cells,[7],34.7 ± 3.6%
same,percent Bodipy-positive cells,[2],47.5 ± 7.2%
same,percent Bodipy-positive cells,[3],41.3 ± 4.2%
CCCCc1oc2ccccc2c1C(=O)c1cc(I)c(OCCN(CC)CC)c(I)c1.Cl [Amiodarone hydrochloride],percent Bodipy-positive cells,[3],97 ± 1.7%
CO/N=C(\C(=O)N[C@@H]1C(=O)N2C(C(=O)O)=C(COC(C)=O)CS[C@H]12)c1csc(N)n1 [Cefotaxime acid],percent Bodipy-positive cells,library stock concentration: 4.4 mM,7.51 ± 3.7%
CO/N=C(\C(=O)N[C@@H]1C(=O)N2C(C(=O)O)=C(COC(C)=O)CS[C@H]12)c1csc(N)n1,percent Bodipy-positive cells,[3],43.5 ± 19%
CO/N=C(\C(=O)N[C@@H]1C(=O)N2C(C(=O)O)=C(COC(C)=O)CS[C@H]12)c1csc(N)n1 [Cefotaxime sodium salt],percent Bodipy-positive cells,,27.2 ± 7%
CO/N=C(\C(=O)N[C@@H]1C(=O)N2C(C(=O)O)=C(COC(C)=O)CS[C@H]12)c1csc(N)n1 [Cefotaxime sodium],percent Bodipy-positive cells,[3],11.9% and 30.3%
C=C[C@](C)(O)CC[C@@H]1[C@@]2(C)CCCC(C)(C)[C@@H]2CC[C@@]1(C)O [Sclareol],percent Bodipy-positive cells,[4],14.5 ± 12%
same,percent Bodipy-positive cells,[3],63.9 ± 2%

# For reference, part of the list above.
compound,measurement,setting,value
CN1CCc2nc(C(=O)N[C@@H]3C[C@@H](C(=O)N(C)C)CC[C@@H]3NC(=O)C(=O)Nc3ccc(Cl)cn3)sc2C1 [Edoxaban],percent Bodipy-positive cells,[3],32.8 ± 1.3%
OCCn1cc(-c2ccc3c(c2)CC/C3=N\O)c(-c2ccncc2)n1,percent Bodipy-positive cells,[6],23.4 ± 9.4%
same,percent Bodipy-positive cells,[7],24.7 ± 3.7%
